Data as given in PubChem BioAssay AID1053208 (Peter MacCallum Cancer Centre, 2014)
Screen: 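Synthetic lethal interactions between gene loss and doxorubicin in osteosarcoma cells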 (primary screen). System: mouse osteosarcoma cells, early-passage culture from an engineered mouse model of fibroblastic bone tumour. Knock-down reagent: siRNA pool against mouse genes, 40 nM. Timing: about 120 h (48 h before drug, then 72 h with drug). Treatment: doxorubicin 100 nM for 72 h, roughly 30-40% inhibitory dose. Measurement: 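Luminescent ATP signal taken as viability with or without 100 nM doxorubicin for 72 h; mean of two wells set against non-targeting siRNA and turned into robust z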. Reading the numbers: viability z-score with doxorubicin: higher = more viable cells under doxorubicin; viability z-score without drug: higher = more viable cells with knock-down alone. Hit rule: 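Called active if knock-down leaves viability unchanged without drug (z within -2 to 2) but lowers it with doxorubicin (z at or under -2)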.
The deposit covers about 17,000 reagents; shown is an unselected part. 788 of all reagents (4.7%) count as active. 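Calls rest on z-score classes alone; an extra cut-off of viability at most 70% of control was not applied to them.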 Entries without a mark were called inactive. Not all columns of the deposit are shown. Reagent sequences are not shown.

| gene symbol | combined z-score class | viability z-score with doxorubicin | viability z-score without drug |
| --- | --- | --- | --- |
| Abat | no change with or without drug | -1.35 | 1.52 |
| Sdc4 | no change with or without drug | -0.79 | -0.84 |
| Tgm4 | high cell count without drug only | 0.9 | 2.02 |
| Eps15 | no change with or without drug | 0.67 | 0.34 |
| Gsta2 | no change with or without drug | 0 | -0.84 |
| Cela3b | no change with or without drug | 0 | 0.17 |
| Tnnt2 | no change with or without drug | 0.67 | 1.18 |
| Lpin3 | low cell count without drug only | -1.12 | -2.19 |
| Nfya | no change with or without drug | 1.35 | -0.51 |
| Gpr88 | no change with or without drug | 1.57 | 1.52 |
| Plekha1 | no change with or without drug | 0.11 | 1.18 |
| Syt8 | no change with or without drug | 0 | -0.67 |
| Gck | no change with or without drug | 0.11 | -0.51 |
| Med4 | no change with or without drug | 1.12 | 0.17 |
| Ttc28 | no change with or without drug | 0.22 | 1.18 |
| Zfp384 | no change with or without drug | 0.56 | 1.18 |
| Aptx | no change with or without drug | 1.12 | -0.84 |
| Hoxc4 | no change with or without drug | -1.12 | -0.17 |
| Sec23a | no change with or without drug | 0.9 | 1.01 |
| Chia1 | no change with or without drug | -1.12 | -0.67 |
| Abca2 | no change with or without drug | 0.9 | 0.17 |
| Adra2a | no change with or without drug | 0.45 | 0 |
| Scrn2 | no change with or without drug | 0.22 | -0.17 |
| Mrps16 | low cell count with doxorubicin only (active) | -3.37 | -1.52 |
| A130023I24Rik | low cell count with doxorubicin only (active) | -2.47 | -0.51 |
| Zfp641 | no change with or without drug | -0.45 | 0.51 |
| Btbd10 | no change with or without drug | 0.67 | -0.17 |
| Dnajb6 | no change with or without drug | -1.24 | 0.84 |
| Hbb-y | no change with or without drug | 0.34 | 0.84 |
| Pip4k2c | no change with or without drug | 0 | 0.84 |
| Pkp2 | no change with or without drug | 0 | -0.51 |
| Mfn1 | low cell count with doxorubicin only (active) | -2.25 | -0.17 |
| Entpd6 | no change with or without drug | 0.34 | 0.84 |
| Gm5094 | no change with or without drug | -0.34 | 0.17 |
| Akap11 | no change with or without drug | 0.34 | -1.01 |
| Etv2 | no change with or without drug | -0.22 | 0.51 |
| Grin3a | no change with or without drug | 1.12 | -0.34 |
| Col26a1 | no change with or without drug | 0.45 | 0.84 |
| Rexo2 | no change with or without drug | 1.12 | 0.34 |
| Cox4i1 | no change with or without drug | -0.67 | 0.67 |
| BC049715 | no change with or without drug | 0.9 | -0.34 |
| Grin2b | no change with or without drug | 0.67 | -1.35 |
| Me2 | high cell count with doxorubicin only | 2.36 | 0.17 |
| Larp4b | no change with or without drug | -0.56 | 0.51 |
| Ivns1abp | no change with or without drug | -0.79 | 0.51 |
| Kcnc4 | no change with or without drug | -0.45 | -0.34 |
| Hdac4 | low cell count with doxorubicin only (active) | -2.25 | -1.85 |
| Tmpo | no change with or without drug | 0 | -0.51 |
| Ccdc90b | no change with or without drug | -0.22 | -0.51 |
| Nsa2 | no change with or without drug | 0.45 | 0.34 |

Entries above with an active call (4):
| gene symbol | combined z-score class | viability z-score with doxorubicin | viability z-score without drug |
| --- | --- | --- | --- |
| Mrps16 | low cell count with doxorubicin only (active) | -3.37 | -1.52 |
| A130023I24Rik | low cell count with doxorubicin only (active) | -2.47 | -0.51 |
| Mfn1 | low cell count with doxorubicin only (active) | -2.25 | -0.17 |
| Hdac4 | low cell count with doxorubicin only (active) | -2.25 | -1.85 |
